No constants are given. Whether binding was seen depends on the method and setting. Some binding calls cover weakened binding; strength is not graded here.
Molecular target: His-tagged cynomolgus monkey TIGIT (Acro Biosystems #TIT-05223) (cynomolgus monkey)
Assay: summary of the data of Tables 3-5

B1: 43586p1.2.F6 (scFv, V domains shown)
VH: EVQLLESGEGLVQPGGSLRLSCAASGFTFTSYLMSWVRQAPGKGLEWVSTITWDGDRTYYADSVKGRFTISRDNSKNTLYLQMNSLRVGDTAVYYCAKHWTVFQYGMDVWGQGTTVTVSS
VL: QSVLTQPASASGTPGQRVTISCSGTISNIETKYVSWYQQLPGTAPKLLIYGNHQRPSGVPDRFSGSKSGTSASLAISGLQSEDEADYYCASWENDLKSWVFGGGTKLTVL
  binding: binds

— patent US20230265187A1
